The target in this experiment is T1, native KCC2 (K+-Cl- cotransporter KCC2) (mouse (endogenous in brain)) (UniProt Q91V14).
T1 sequence: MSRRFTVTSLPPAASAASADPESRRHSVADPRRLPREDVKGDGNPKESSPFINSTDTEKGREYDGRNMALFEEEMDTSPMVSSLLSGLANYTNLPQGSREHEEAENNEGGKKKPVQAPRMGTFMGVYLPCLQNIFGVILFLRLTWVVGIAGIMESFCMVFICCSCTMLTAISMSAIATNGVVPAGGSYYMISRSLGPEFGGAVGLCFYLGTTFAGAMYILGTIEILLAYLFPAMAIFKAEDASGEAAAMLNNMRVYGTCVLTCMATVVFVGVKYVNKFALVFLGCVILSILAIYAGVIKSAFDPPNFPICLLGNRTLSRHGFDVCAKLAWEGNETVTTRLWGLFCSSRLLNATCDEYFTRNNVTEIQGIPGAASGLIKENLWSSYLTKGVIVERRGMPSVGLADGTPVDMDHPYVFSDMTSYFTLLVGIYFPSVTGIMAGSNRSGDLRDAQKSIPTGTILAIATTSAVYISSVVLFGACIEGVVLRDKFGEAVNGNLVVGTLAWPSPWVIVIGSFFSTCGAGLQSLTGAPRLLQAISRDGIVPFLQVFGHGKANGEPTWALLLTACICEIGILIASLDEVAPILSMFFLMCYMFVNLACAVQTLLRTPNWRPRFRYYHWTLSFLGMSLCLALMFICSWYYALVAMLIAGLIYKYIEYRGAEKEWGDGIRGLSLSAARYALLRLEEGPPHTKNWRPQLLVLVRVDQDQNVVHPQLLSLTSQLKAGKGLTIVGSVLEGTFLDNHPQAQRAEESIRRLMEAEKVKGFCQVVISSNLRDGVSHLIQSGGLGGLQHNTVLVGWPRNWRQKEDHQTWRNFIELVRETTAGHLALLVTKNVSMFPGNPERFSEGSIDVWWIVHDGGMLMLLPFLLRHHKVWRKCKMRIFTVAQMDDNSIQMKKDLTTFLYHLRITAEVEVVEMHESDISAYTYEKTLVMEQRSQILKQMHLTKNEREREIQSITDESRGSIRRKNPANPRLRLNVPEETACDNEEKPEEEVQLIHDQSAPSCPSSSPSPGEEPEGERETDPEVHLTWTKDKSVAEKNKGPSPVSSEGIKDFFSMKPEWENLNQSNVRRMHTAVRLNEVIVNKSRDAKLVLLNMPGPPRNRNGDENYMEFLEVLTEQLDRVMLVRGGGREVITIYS
As to the kind of experiment: affinity purification with mass spectrometry; anti-KCC2 antibodies (C-terminal, N-terminal KCC2b, pS940) cross-linked with DMP to GammaBind IgG beads; C12E9-solubilised whole-brain membrane fractions of P5 and P50 mice; 4 hr, 4°C; parallel IgG/IgY controls.

Results are given in words; binding and its absence hold for the method and conditions named. In cells and extracts the contact can be indirect. These calls come from enrichment with a bait or labelling near it, and not all partners need be listed.

B1: SFPQ (protein, UniProt Q8VIJ6 1-699)
chain: MSRDRFRSRGGGGGGFHRRGGGGGRGGLHDFRSPPPGMGLNQNRGPMGPGPGGPKPPLPPPPPHQQQQQPPPQQPPPQQPPPHQQPPPHQPPHQQPPPPPQESKPVVPQGPGSAPGVSSAPPPAVSAPPANPPTTGAPPGPGPTPTPPPAVPSTAPGPPPPSTPSSGVSTTPPQTGGPPPPPAGGAGPGPKPGPGPGGPKGGKMPGGPKPGGGPGMGAPGGHPKPPHRGGGEPRGGRQHHAPYHQQHHQGPPPGGPGPRTEEKISDSEGFKANLSLLRRPGEKTYTQRCRLFVGNLPADITEDEFKRLFAKYGEPGEVFINKGKGFGFIKLESRALAEIAKAELDDTPMRGRQLRVRFATHAAALSVRNLSPYVSNELLEEAFSQFGPIERAVVIVDDRGRSTGKGIVEFASKPAARKAFERCSEGVFLLTTTPRPVIVEPLEQLDDEDGLPEKLAQKNPMYQKERETPPRFAQHGTFEYEYSQRWKSLDEMEKQQREQVEKNMKDAKDKLESEMEDAYHEHQANLLRQDLMRRQEELRRMEELHSQEMQKRKEMQLRQEEERRRREEEMMIRQREMEEQMRRQREESYSRMGYMDPRERDMRMGGGGTMNMGDPYGSGGQKFPPLGGGGGIGYEANPGVPPATMSGSMMGSDMRTERFGQGGAGPVGGQGPRGMGPGTPAGYGRGREEYEGPNKKPRF
With B1, the binding entry is reported as “binds”.

B2: DNM1 (protein, UniProt P39053 1-867)
chain: MGNRGMEDLIPLVNRLQDAFSAIGQNADLDLPQIAVVGGQSAGKSSVLENFVGRDFLPRGSGIVTRRPLVLQLVNSTTEYAEFLHCKGKKFTDFEEVRLEIEAETDRVTGTNKGISPVPINLRVYSPHVLNLTLVDLPGMTKVPVGDQPPDIEFQIRDMLMQFVTKENCLILAVSPANSDLANSDALKIAKEVDPQGQRTIGVITKLDLMDEGTDARDVLENKLLPLRRGYIGVVNRSQKDIDGKKDITAALAAERKFFLSHPSYRHLADRMGTPYLQKVLNQQLTNHIRDTLPGLRNKLQSQLLSIEKEVDEYKNFRPDDPARKTKALLQMVQQFAVDFEKRIEGSGDQIDTYELSGGARINRIFHERFPFELVKMEFDEKELRREISYAIKNIHGIRTGLFTPDMAFETIVKKQVKKIREPCLKCVDMVISELISTVRQCTKKLQQYPRLREEMERIVTTHIREREGRTKEQVMLLIDIELAYMNTNHEDFIGFANAQQRSNQMNKKKTSGNQDEILVIRKGWLTINNIGIMKGGSKEYWFVLTAENLSWYKDDEEKEKKYMLSVDNLKLRDVEKGFMSSKHIFALFNTEQRNVYKDYRQLELACETQEEVDSWKASFLRAGVYPERVGDKEKASETEENGSDSFMHSMDPQLERQVETIRNLVDSYMAIVNKTVRDLMPKTIMHLMINNTKEFIFSELLANLYSCGDQNTLMEESAEQAQRRDEMLRMYHALKEALSIIGDINTTTVSTPMPPPVDDSWLQVQSVPAGRRSPTSSPTPQRRAPAVPPARPGSRGPAPGPPPAGSALGGAPPVPSRPGASPDPFGPPPQVPSRPNRAPPGVPSLGAWRLNSPQGKHENRAGKARL
Turning to B2, the binding result was “binds”.

B3: DLD (protein, UniProt O08749 36-509)
chain: ADQPIEADVTVIGSGPGGYVAAIKSAQLGFKTVCIEKNETLGGTCLNVGCIPSKALLNNSHYYHMAHGKDFASRGIEIPEVRLNLEKMMEQKHSAVKALTGGIAHLFKQNKVVHVNGFGKITGKNQVTATKADGSTQVIDTKNILVATGSEVTPFPGITIDEDTIVSSTGALSLKKVPEKLVVIGAGVIGVELGSVWQRLGADVTAVEFLGHVGGIGIDMEISKNFQRILQRQGFKFKLNTKVTGATKKSDGKIDVSVEAASGGKAEVITCDVLLVCIGRRPFTQNLGLEELGIELDPKGRIPVNNRFQTKIPNIYAIGDVVAGPMLAHKAEDEGIICVEGMAGGAVHIDYNCVPSVIYTHPEVAWVGKSEEQLKEEGIEFKIGKFPFAANSRAKTNADTDGMVKILGHKSTDRVLGAHILGPGAGEMVNEAALALEYGASCEDIARVCHAHPTLSEAFREANLAAAFGKPINF
Consider B3, for which the binding result was “binds”.

B4: SYNGR3 (protein, UniProt Q8R191 1-229)
chain: MEGASFGAGRAGAAFDPVSFARRPQTLLRVVSWVFSIAVFGPIVNEGYVNSDSGPELRCVFNGNAGACRFGVVLGLGAFIACVAFLLLDVRFQQISSVRDRRRAVLLDLGFSGVWSFLWFVGFCFLTNQWQRTTPGPGTAQAGDAARAAIAFSFFSILSWVALTVKALQRFRLGTDMSLFATDQLGTGAAQAYPGYPVGSGVEGTETYQSPPFTETLDTSSKGYQVPAY
For the molecule B4, the binding result is “binds”.

B5: SLC25A11 (protein, UniProt Q9CR62 1-314)
chain: MAATASPGAGRMDGKPRTSPKSVKFLFGGLAGMGATVFVQPLDLVKNRMQLSGEGAKTREYKTSFHALTSILKTEGLKGIYTGLSAGLLRQATYTTTRLGIYTVLFERLTGADGTPPGFLLKALIGMTAGATGAFVGTPAEVALIRMTADGRLPADQRRGYKNVFNALVRIAREEGVPTLWRGCIPTMARAVVVNAAQLASYSQSKQFLLDSGYFSDNILCHFCASMISGLVTTAASMPVDIVKTRIQNMRMIDGKPEYKNGLDVLLKVVRYEGFFSLWKGFTPYYARLGPHTVLTFIFLEQMNKAYKRLFLSG
Consider B5, for which the binding result is “binds”.

B6: CCT2 (protein, UniProt P80314 1-535)
chain: MASLSLAPVNIFKAGADEERAETARLSSFIGAIAIGDLVKSTLGPKGMDKILLSSGRDAALMVTNDGATILKNIGVDNPAAKVLVDMSRVQDDEVGDGTTSVTVLAAELLREAESLIAKKIHPQTIISGWREATKAAREALLSSAVDHGSDEARFWQDLMNIAGTTLSSKLLTHHKDHFTKLAVEAVLRLKGSGNLEAIHVIKKLGGSLADSYLDEGFLLDKKIGVNQPKRIENAKILIANTGMDTDKIKIFGSRVRVDSTAKVAEIEHAEKEKMKEKVERILKHGINCFINRQLIYNYPEQLFGAAGVMAIEHADFAGVERLALVTGGEIASTFDHPELVKLGSCKLIEEVMIGEDKLIHFSGVALGEACTIVLRGATQQILDEAERSLHDALCVLAQTVKDPRTVYGGGCSEMLMAHAVTQLANRTPGKEAVAMESFAKALRMLPTIIADNAGYDSADLVAQLRAAHSEGHITAGLDMKEGTIGDMAVLGITESFQVKRQVLLSAAEAAEVILRVDNIIKAAPRKRVPDHHPC
For the molecule B6, the binding result is “binds”.

B7: NDUFS5 (protein, UniProt Q99LY9 1-106)
chain: MPFLDIQKKLGISLDRHFMFLSAEQPYKNAARCHAFEKEWIECAHGIGGTRAKKECKIEFDDFEECLLRYKTMRRMHDIKKQREKLMKEGKYTPPPHHSGREEPRP
Regarding B7, the binding result is “binds”.

B8: RAB11FIP5 (protein, UniProt Q8R361 1-645)
chain: MALVRDPEPAAGSSRWLPTHVQVTVLRASGLRGKSSGAGSTSDAYTVIQVGREKYSTSVVEKTQGCPEWCEECSFELPPGALDGLLRAQEADAGPAPWASGPNAACELVLTTMHRSLIGVDKFLGRATVALDEVFRAGRAQHTQWYRLHSKPGKKEKERGEIQVTIQFTRNNLSASMFDLSMKDKPRSPFSKLKDRVKGKKKYDLESASAILPSSALEDPELGSLGKMGKAKGFFLRNKLRKSSLTQSNTSLGSDSTLSSTSGSLVYQGPGAELLTRSPSHSSWLSTEGGRDSIQSPKLLTHKRTYSDEASQLRAAPPRALLELQGHLDGASRSSLCVNGSHVYNEEPQPPLRHRSSISGPFPPSSSLHSVPPRSSEEGSRSSDDSWGRGSHGTSSSEAVPGQEELSKQAKGASCSGEEEGARLPEGKPVQVATPMVASSEAVAAEKDRKPRMGLFHHHHHQGLSRSEQGRRGSVGEKGSPSLGASPHHSSTGEEKAKSSWFGLRESKEPTQKPSPHPVKPLTAAPVEASPDRKQPRTSLSTALSSGLERLKTVTSGGIQSVLPASQLGSSVDTKRPKDSAVLDQSAKYYHLTHDELIGLLLQRERELSQRDEHVQELESYIDRLLVRIMETSPTLLQISPGPPK
For B8, the binding entry is on record as “binds”.

The values above are taken from paper PMC5640428.
